Measurements taken from PubChem BioAssay AID246 (DTP/NCI, 2004).
The list does not hold the whole screen: it gathers tests that were run many times, whatever their T/C, doses with no T/C, and many T/C values between a quarter and a half above the control. Further doses and runs are listed elsewhere. T/C gives the treated animals as a percentage of the vehicle group. Some doses have a count of surviving animals in place of a T/C: the source files T/C as zero there, which appears to mark a toxic dose or a test without result, not a measured value. Some doses without a T/C left all or most animals alive at the check, yet need not have been tolerated: the source hardly ever lists a survival T/C far under the control, and the zero likely stands for such cases as well. Survivors were counted at the toxicity check, usually on the fifth day, unless a day is given; later deaths do not show. Schedules are NCI's codes, read here as Q, the interval in days (D) or hours (H), X, the number of doses. Some schedule codes hold Z or #, which are not explained here. Some entries hold several experiments; their values stand side by side, smallest first. Where survival is the endpoint, the PubChem record calls one and a half times the control and up active, and a quarter to a half above the control has no call in these data; cut-offs in other NCI protocols can differ.

Test system: BDF1 mice, P1081 chloroleukemia ip, survival T/C
Assay: NCI In Vivo Anticancer Drug Screen. Data for tumor model P1081 Chloroleukemia (intraperitoneal) in B6D2F1 (BDF1) mice
Conditions: T/C endpoint: mean survival time, higher T/C = longer survival
Procedure: The antitumor activity of compounds was measured in mice bearing transplantable tumors. Survival or tumor size were measured and the results are expressed as the measurement made in the treated group (T) divided by the measurement made in the vehicle treated control group (C). The tumor model used in this assay is P1081 Chloroleukemia (intraperitoneal) in B6D2F1 (BDF1) mice

[1] = dose: 150.0 mg/kg/injection, schedule: Q01DX010 (ip), vehicle: saline

CS(=O)(=O)OCCCl
T/C [1]: 135 % of control | survivor count [1]: 4 of 6 | survivor count (dose: 200.0 mg/kg/injection, schedule: Q01DX Z (ip), vehicle: carboxymethylcellulose (CMC)): 1 of 6 and 3 of 6 | survivor count (dose: 400.0 mg/kg/injection, schedule: Q01DX Z (ip), vehicle: carboxymethylcellulose (CMC)): 0 of 6 | survivor count (dose: 800.0 mg/kg/injection, schedule: Q01DX Z (ip), vehicle: carboxymethylcellulose (CMC)): 0 of 6 | survivor count (dose: 4000.0 mg/kg/injection, schedule: Q01DX Z (ip), vehicle: carboxymethylcellulose (CMC)): 0 of 6

O=c1[nH]c(=O)n(C2CC(O)C(CO)O2)cc1Br (centres undefined)
survivor count (dose: 125.0 mg/kg/injection, schedule: Q01DX Z (ip), vehicle: carboxymethylcellulose (CMC)): 6 of 6

Clc1ncnc2nc[nH]c12
survivor count (dose: 500.0 mg/kg/injection, schedule: Q01DX Z (ip), vehicle: carboxymethylcellulose (CMC)): 0 of 6

CC[C@@H](c1ccc(O)cc1)[C@@H](CC)c1ccc(O)cc1
survivor count (dose: 1000.0 mg/kg/injection, schedule: Q01DX Z (sc), vehicle: steroid suspending solution): 6 of 6
